From paper doi:10.1101/2021.11.24.469949 come the findings set out here.

What all share (assay): affinity purification with mass spectrometry
Experiment [1] addresses T1, 3xFLAG tagged PHB (Arabidopsis) (UniProt O04291).
T1 sequence: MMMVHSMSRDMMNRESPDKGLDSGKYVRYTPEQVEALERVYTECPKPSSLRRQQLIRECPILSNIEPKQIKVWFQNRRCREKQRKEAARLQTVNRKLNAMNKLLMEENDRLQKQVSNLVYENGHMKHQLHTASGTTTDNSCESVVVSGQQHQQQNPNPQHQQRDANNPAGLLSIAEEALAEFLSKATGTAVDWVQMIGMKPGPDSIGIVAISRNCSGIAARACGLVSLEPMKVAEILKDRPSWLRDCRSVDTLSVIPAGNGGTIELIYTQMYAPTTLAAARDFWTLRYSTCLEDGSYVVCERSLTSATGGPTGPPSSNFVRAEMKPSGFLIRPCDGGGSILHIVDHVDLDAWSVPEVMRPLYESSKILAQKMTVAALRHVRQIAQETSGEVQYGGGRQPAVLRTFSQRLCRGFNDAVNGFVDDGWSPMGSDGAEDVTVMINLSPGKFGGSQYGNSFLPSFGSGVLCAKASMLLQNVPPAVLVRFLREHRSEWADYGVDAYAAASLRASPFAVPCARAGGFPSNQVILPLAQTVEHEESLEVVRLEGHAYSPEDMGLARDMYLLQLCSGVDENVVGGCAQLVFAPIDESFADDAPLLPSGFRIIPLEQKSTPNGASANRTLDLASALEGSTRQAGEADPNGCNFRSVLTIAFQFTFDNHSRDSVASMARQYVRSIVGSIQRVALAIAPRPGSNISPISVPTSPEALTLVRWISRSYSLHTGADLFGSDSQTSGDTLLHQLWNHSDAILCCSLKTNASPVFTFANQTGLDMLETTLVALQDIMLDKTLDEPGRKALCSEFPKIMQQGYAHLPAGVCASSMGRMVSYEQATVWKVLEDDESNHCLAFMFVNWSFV

In experiment [2] the target is T2, 3xFLAG tagged REV (Arabidopsis) (UniProt Q9SE43).
T2 sequence: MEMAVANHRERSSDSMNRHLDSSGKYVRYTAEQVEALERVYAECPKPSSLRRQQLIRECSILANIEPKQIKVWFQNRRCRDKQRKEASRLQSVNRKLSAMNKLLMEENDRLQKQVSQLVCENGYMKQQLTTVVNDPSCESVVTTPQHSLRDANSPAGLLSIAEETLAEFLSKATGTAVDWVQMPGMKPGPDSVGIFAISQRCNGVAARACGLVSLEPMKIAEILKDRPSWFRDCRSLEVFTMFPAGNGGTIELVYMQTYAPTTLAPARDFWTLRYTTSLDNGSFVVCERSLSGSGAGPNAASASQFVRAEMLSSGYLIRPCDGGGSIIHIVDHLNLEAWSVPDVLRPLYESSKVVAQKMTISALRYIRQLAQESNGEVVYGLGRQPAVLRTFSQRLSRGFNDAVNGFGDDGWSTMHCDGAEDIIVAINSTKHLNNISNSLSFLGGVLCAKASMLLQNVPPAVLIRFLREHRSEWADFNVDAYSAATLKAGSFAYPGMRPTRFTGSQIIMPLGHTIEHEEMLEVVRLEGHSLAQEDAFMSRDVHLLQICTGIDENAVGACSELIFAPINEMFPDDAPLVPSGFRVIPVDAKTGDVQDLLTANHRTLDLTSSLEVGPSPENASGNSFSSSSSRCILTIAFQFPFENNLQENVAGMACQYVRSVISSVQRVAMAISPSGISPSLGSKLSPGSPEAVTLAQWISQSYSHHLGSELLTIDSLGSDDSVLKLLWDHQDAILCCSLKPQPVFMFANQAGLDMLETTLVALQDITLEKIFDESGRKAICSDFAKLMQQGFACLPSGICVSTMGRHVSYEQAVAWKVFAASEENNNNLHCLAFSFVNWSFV

Experiment [3] concerns the target T3, ZPR2-tdTomato-3xFLAG (Arabidopsis) (UniProt Q9LZX5).
T3 sequence: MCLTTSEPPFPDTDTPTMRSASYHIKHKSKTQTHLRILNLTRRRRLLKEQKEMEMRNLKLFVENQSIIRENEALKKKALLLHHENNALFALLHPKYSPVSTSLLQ

The target in experiment [4] is ZPR1-tdTomato-3xFLAG (Arabidopsis).

Results are given in words; binding and its absence hold for the method and conditions named. In cells and extracts the contact can be indirect. Here binding means that the protein was enriched with, or labelled near, the bait; the list need not be complete. For some of these results: Sequences can lack the tags named with a protein.

B1: CORONA/ATHB15 (CNA) (protein, UniProt Q9ZU11 1-836)
chain: MAMSCKDGKLGCLDNGKYVRYTPEQVEALERLYHDCPKPSSIRRQQLIRECPILSNIEPKQIKVWFQNRRCREKQRKEASRLQAVNRKLTAMNKLLMEENDRLQKQVSQLVHENSYFRQHTPNPSLPAKDTSCESVVTSGQHQLASQNPQRDASPAGLLSIAEETLAEFLSKATGTAVEWVQMPGMKPGPDSIGIIAISHGCTGVAARACGLVGLEPTRVAEIVKDRPSWFRECRAVEVMNVLPTANGGTVELLYMQLYAPTTLAPPRDFWLLRYTSVLEDGSLVVCERSLKSTQNGPSMPLVQNFVRAEMLSSGYLIRPCDGGGSIIHIVDHMDLEACSVPEVLRPLYESPKVLAQKTTMAALRQLKQIAQEVTQTNSSVNGWGRRPAALRALSQRLSRGFNEAVNGFTDEGWSVIGDSMDDVTITVNSSPDKLMGLNLTFANGFAPVSNVVLCAKASMLLQNVPPAILLRFLREHRSEWADNNIDAYLAAAVKVGPCSARVGGFGGQVILPLAHTIEHEEFMEVIKLEGLGHSPEDAIVPRDIFLLQLCSGMDENAVGTCAELIFAPIDASFADDAPLLPSGFRIIPLDSAKEVSSPNRTLDLASALEIGSAGTKASTDQSGNSTCARSVMTIAFEFGIESHMQEHVASMARQYVRGIISSVQRVALALSPSHISSQVGLRTPLGTPEAQTLARWICQSYRGYMGVELLKSNSDGNESILKNLWHHTDAIICCSMKALPVFTFANQAGLDMLETTLVALQDISLEKIFDDNGRKTLCSEFPQIMQQGFACLQGGICLSSMGRPVSYERAVAWKVLNEEENAHCICFVFINWSFV
Consider B1, for which the binding result in experiment [1] and in experiment [2] was “binds” throughout.

B2: ZPR3 (endogenous) (protein, UniProt Q9LXI8 1-67)
chain: MERLNSKLFVENCYIMKENERLRKKAELLNQENQQLLFQLKQKLSKTKNSNNGSNNDNKSSSASGQS
On to B2, for which the binding result in experiment [2] is recorded as “binds”.

B3: AT2G30620.1 (protein, UniProt P26569 1-273)
chain: MSIEEENVPTTVDSGAADTTVKSPEKKPAAKGGKSKKTTTAKATKKPVKAAAPTKKKTTSSHPTYEEMIKDAIVTLKERTGSSQYAIQKFIEEKHKSLPPTFRKLLLVNLKRLVASEKLVKVKASFKIPSARSAATPKPAAPVKKKATVVAKPKGKVAAAVAPAKAKAAAKGTKKPAAKVVAKAKVTAKPKAKVTAAKPKSKSVAAVSKTKAVAAKPKAKERPAKASRTSTRTSPGKKVAAPAKKVAVTKKAPAKSVKVKSPAKRASTRKAKK
B3: the binding entry in experiment [3] is “binds”.

B4: FKBP53 (AT4G25340.1) (protein, UniProt Q93ZG9 1-477)
chain: MGFWGLEVKPGKPQAYNPKNEQGKIHVTQATLGTGLSKEKSVIQCSIGDKAPIALCSLLPNKIECCPLNLEFDDDDEPVEFTVTGDRSIHLSGFLEYYQDDEDDYEHDEDDSDGIDVGESEEDDSCEYDSEEDEQLDEFEDFLDSNLERYRNAAAPKSGVIIEEIEDEEKPAKDNKAKQTKKKSQASEGENAKKQIVAIEGAHVPVLESEDEDEDGLPIPKGKSSEVENASGEKMVVDNDEQGSNKKRKAKAAEQDDGQESANKSKKKKNQKEKKKGENVLNEEAGQVQTGNVLKKQDISQISSNTKAQDGTANNAMSESSKTPDKSAEKKTKNKKKKKPSDEAAEISGTVEKQTPADSKSSQVRTYPNGLIVEELSMGKPNGKRADPGKTVSVRYIGKLQKNGKIFDSNIGKSPFKFRLGIGSVIKGWDVGVNGMRVGDKRKLTIPPSMGYGVKGAGGQIPPNSWLTFDVELINVQ
Regarding B4, the binding result in experiment [3] is given as “binds”.

B5: ZPR4 (endogenous) (protein, UniProt Q56WL5 1-72)
chain: MERLNSKLYLQNCYIIKENERLRKKAQILNQENQQLLFELKQKLSKTKNSSGSNQGNNNNNNNLSSSSSASG
Take B5: the binding result in experiment [1] and in experiment [2] was “binds” throughout.

B6: PRMT4B (AT3G06930.2) (protein, UniProt Q84W92 1-535)
chain: MEVSSVKKLEQLEYSLESVTDLSSSSVSSSSPAVATFSYVDGVTELRFLQSDSTHCFNFDLASAQLFKLGPVHFICVSDGSSSSEEKSFSKGVNIKFKNEKDSKDFCESFEEWRNDSVVQGSSLQNGTVSANKSKFDNKIEASSAKMYFHYYGQLLHQQNMLQDYVRTGTYYAAVMENHSDFAGRVVVDVGAGSGILSMFAAQAGAKHVYAVEASEMAEYARKLIAGNPLFADRITVIKGKVEDIELPEKADILISEPMGTLLVNERMLESYVIARDRFMTPKGKMFPTVGRIHMAPFSDEFLFIEMANKAMFWQQQNYYGVDLTPLYGSAHQGYFSQPVVDAFDPRLLVASPMFHMIDFTQMKEEDFYEIDIPLKFTASMCTRMHGLACWFDVLFDGSTVQRWLTTAPGAPTTHWYQIRCVLSQPIYVMAGQEITGRLHLIAHSAQSYTIDLTLSAKMWGPGASQGGILQSSTCKFDLKEPYYRMSQPQAYPVAQEPPLQPQPELSTQQDIQTPNDELEEELLQQLPQNPSAQL
B6: the binding result in experiment [4] is “binds”.

B7: AT5G49020.1 (protein, UniProt A3KPF2 1-528)
chain: MEIPSLNKQQEFTLASVTDLTSPSSSLSSSPVVATFSCVNEVKELRFQESKSSDGFSFDLSSTQLFKLGPLQFTCVSDGSISSAKEKSSFSRGVVIKFRDEKDSKEFCDSFEECKKDDAVKQGSALPNGTVVSANKSKFDDKIEAASAKMYFHYYGQLLHQQNMLQDYVRTGTYHAAVMENRSDFSGRVVVDVGAGSGILSMFAALAGAKHVYAVEASEMAEYARKLIAGNPLLAERITVIKGKIEDIELPEKADVLISEPMGTLLVNERMLETYVIARDRFLSPNGKMFPTVGRIHMAPFADEFLFVEMANKALFWQQQNYYGVDLTPLYVSAHQGYFSQPVVDAFDPRLLVAPSMFHVIDFTMMTEEQFYEIDIPLKFTASVCTRIHGLACWFDVLFDGSTVQRWFTTAPGAPTTHWYQIRCVLSQPIHVMAGQEITGRLHLIAHSAQSYTINLTLSAKMWGPGANQGGILQTSSCKLDLKEPYYRMSQPQVYPTQEPPAQSQDIHIHSDDLEELELLQQNANAQL
As for B7, the binding result in experiment [4] is on record as “binds”.

B8: VIP3 (AT4G29830.1) (protein, UniProt Q9SZQ5 1-321)
chain: MKLAGLKSIENAHEDSVWAATWVPATEDRPALLLTGSLDETVKLWRPDELDLVRTNTGHSLGVAALAAHPSGIIAASSSIDSFVRVFDVDTNATIAVLEAPPSEVWGMQFEPKGTILAVAGGSSASVKLWDTASWRLISTLSIPRPDAPKPSDKTSSKKFVLSVAWSPNGKRLACGSMDGTICVFDVDRSKLLHQLEGHNMPVRSLVFSPVDPRVLFSGSDDGHVNMHDAEGKTLLGSMSGHTSWVLSVDASPDGGAIATGSSDRTVRLWDLKMRAAIQTMSNHNDQVWSVAFRPPGGTGVRAGRLASVSDDKSVSLYDYS
Turning to B8, the binding result in experiment [3] was “binds”.
